This is an account of results in PubChem BioAssay AID493014 (National Center for Advancing Translational Sciences (NCATS), 2011).

The other results are listed elsewhere or left out. The main result of the screen is listed elsewhere. These columns were measured beside it and carry no call. Compounds called inactive in the main read-out are mostly missing here. The note in brackets gives the kind of curve behind each potency; many fits are weak.

For orientation: AC50 means the midpoint of the concentration-response curve, whichever way the signal moves.

This test can be described thus: qHTS Assay to Find Inhibitors of Chronic Active B-Cell Receptor Signaling. Conditions: ABC-DLBCL IkBa-CBG/CBR reporter, luminescence ratio (green luciferase fused to IkBa over red control in TMD8 lymphoma cells), 4 h; measured here: CBR red luminescence, cell number. In a few lines:
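Cell line TMD8 (human ABC DLBCL), stably expressing tet-inducible CBG68-IkBa fusion and CBR; IMDM/0.5% FBS; cpd up to 46 uM; dox induction, 4 h, 37C/5% CO2; dual luminescence; green/red ratio; MG132 control.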
For orientation: Quantitative high-throughput screening tests each substance at several concentrations.
In the case of `COc1ccc(C(=O)COC(=O)c2cccc(-n3cnnn3)c2)c(OC)c1`, the AC50 was 0.366 µM [falling, full curve]. In the case of `Brc1cccc(-c2cnc3n2CCCCC3)c1`, the half-maximal activity concentration (AC50) is 29.1 µM [falling, single point]. The result for `COc1ccc(CCNC(=O)c2nnc(Cc3ccc(Cl)cc3)o2)cc1OC` reads 29.1 µM [falling, single point]; that for `CCOC(=O)CC(=O)Nc1nnc(CC(C)C)s1`, 29.1 µM [rising, single point]. For the molecule `COc1ccc(NC(=O)c2sc3nc(C)cc(C)c3c2N)cc1`, the AC50 is 3.55 µM [falling, full curve, poor fit].

On to `Cc1ccc2c(c1)N=C(c1ccc(Cl)cc1)CO2`, for which the concentration at half-maximal activity (AC50) was 0.731 µM [rising, full curve, poor fit]. Then `Cc1onc(-c2ccccc2)c1C(=O)N/N=C/C(Br)=C/c1ccccc1`, with 20.6 µM [falling, single point]. For `COc1ccc(C)cc1NC(=O)C1CC(=O)OC12CCCCC2` (stereo not drawn), the concentration at half-maximal activity (AC50) was 29.1 µM [rising, single point]. As to `CCn1c(SCC(=O)Nc2ccc3c(c2)OCO3)nc2c1c(=O)n(C)c(=O)n2C`, the concentration at half-maximal activity (AC50) is 29.1 µM [falling, single point]. As for `Cc1ccc(C(NC(=O)N2CCN(C)CC2)C(Cl)Cl)cc1F` (stereo not drawn), the AC50 is 3.16 µM [falling, full curve]. As to `O=S(=O)(c1cccc(C(F)(F)F)c1)n1c(/C=C/c2ccccc2)nc2ccccc21`, the AC50 is 35.5 µM [falling, single point]. Then `O=[N+]([O-])c1ccc2c(c1)CNc1ccccc1O2`, with 2.82 µM [rising, partial curve]; and `CN(C)S(=O)(=O)Oc1cccc(C(=O)Nc2ccc([N+](=O)[O-])cc2)c1`, with 0.0891 µM [rising, full curve, poor fit]; and `O=C(CSc1nnc(CNC(=O)c2cccs2)o1)c1ccc(Cl)cc1`, with 11.6 µM [rising, partial curve, poor fit]. `CCOC(=O)C1CCN(c2c(Nc3ccc4c(c3)OCCO4)c(=O)c2=O)CC1`: the AC50 is 29.1 µM [rising, single point].

With `C/C(=N\OCc1ccccc1)c1c(O)cc(C(C)C)n(-c2ccccc2)c1=O`, the AC50 is 23.1 µM [rising, partial curve, poor fit]. With `CCC(=O)Nc1ccc(C(=O)Nc2cccc(OC)c2)cc1`, the concentration at half-maximal activity (AC50) is 0.13 µM [falling, partial curve, poor fit]. On to `O=C(CSc1n[nH]c(-c2ccco2)n1)N1c2ccccc2Sc2ccccc21`, for which the AC50 was 15.8 µM [falling, single point].
